Experiment: general procedure: peptide synthesis; 2-chlorotrityl resin; HATU; PyAOP

Row | Substance | final purity (method not given) (late stage modification step) [% purity] | step yield (late stage modification step) [% yield] | final purity (method not given) (coupling step) [% purity] | step yield (coupling step) [% yield] | crude purity (method not given) (late stage modification step) [% purity]
1 | N^6—{N-[(1r,4S)-4-(aminomethyl)cyclohexane-1-carbonyl]-4-methyl-L-phenylalanyl}-N^2-{[(1S)-1,3-dicarboxypropyl]carbamoyl}-L-lysine | 90 | 36 |  |  | 
2 | tri-tert-butyl (3S,10S,14S)-1-{(1r,4S)-4-[({[(9H-fluoren-9-yl)methoxy]carbonyl}amino)methyl]cyclohexyl}-1,4,12-trioxo-3-[(quinolin-2-yl)methyl]-2,5,11,13-tetraazahexadecane-10,14,16-tricarboxylate |  |  | 95 | 32 | 
3 | tri-tert-butyl (4S,11S,15S)-1-[4-({[(9H-fluoren-9-yl)methoxy]carbonyl}amino)phenyl]-4-[(naphthalen-2-yl)methyl]-2,5,13-trioxo-3,6,12,14-tetraazaheptadecane-11,15,17-tricarboxylate |  |  | 80 | 40 | 
4 | N^6—{N-[(1r,4S)-4-(aminomethyl)cyclohexane-1-carbonyl]-3-(quinolin-3-yl)-L-alanyl}-N^2-{[(1S)-1,3-dicarboxypropyl]carbamoyl}-L-lysine | 95 | 72 |  |  | 
5 | tri-tert-butyl (3S,10S,14S)-1-[(1r,4S)-4-(aminomethyl)cyclohexyl]-3-[(4-tert-butylphenyl)methyl]-1,4,12-trioxo-2,5,11,13-tetraazahexadecane-10,14,16-tricarboxylate |  | 74 |  |  | 
6 | tri-tert-butyl (3S,10S,14S)-1-{(1r,4S)-4-[({[(9H-fluoren-9-yl)methoxy]carbonyl}amino)methyl]cyclohexyl}-3-[(2-methylphenyl)methyl]-1,4,12-trioxo-2,5,11,13-tetraazahexadecane-10,14,16-tricarboxylate |  |  | 93 | 75 | 
7 | tri-tert-butyl (4S,11S,15S)-1-(4-aminophenyl)-4-[(naphthalen-2-yl)methyl]-2,5,13-trioxo-3,6,12,14-tetraazaheptadecane-11,15,17-tricarboxylate | 90 | 77 |  |  | 
8 | (4S,11S,15S)-4-[(naphthalen-2-yl)methyl]-2,5,13-trioxo-1-(4-{2-[4,7,10-tris(carboxymethyl)-1,4,7,10-tetraazacyclododecan-1-yl]acetamido}phenyl)-3,6,12,14-tetraazaheptadecane-11,15,17-tricarboxylic acid | 90 | 11 |  |  | 
9 | tri-tert-butyl (3S,10S,14S)-1-[(1r,4S)-4-(aminomethyl)cyclohexyl]-3-[(4-methylphenyl)methyl]-1,4,12-trioxo-2,5,11,13-tetraazahexadecane-10,14,16-tricarboxylate | 80 | 47 |  |  | 
10 | N^6—{N-[(1r,4S)-4-(aminomethyl)cyclohexane-1-carbonyl]-2-methyl-L-phenylalanyl}-N^2-{[(1S)-1,3-dicarboxypropyl]carbamoyl}-L-lysine | 80 | 54 |  |  | 
11 | (3S,10S,14S)-1-[(1r,4S)-4-(aminomethyl)cyclohexyl]-3-[(naphthalen-2-yl)methyl]-1,4,12-trioxo-2-[(6-oxo-1,6-dihydropyridin-2-yl)methyl]-2,5,11,13-tetraazahexadecane-10,14,16-tricarboxylic acid |  | 33 |  |  | 90
12 | formic acid-tri-tert-butyl (7S,14S,18S)-7-{[(1r,4S)-4-(aminomethyl)cyclohexane-1-carbonyl]amino}-1,8,16-trioxo-1-(pyridin-3-yl)-2,9,15,17-tetraazaicosane-14,18,20-tricarboxylate (1/1) | 98 | 44 |  |  | 
13 | (3S,10S,14S)-1-[(1r,4S)-4-(aminomethyl)cyclohexyl]-3-[(1-bromonaphthalen-2-yl)methyl]-1,4,12-trioxo-2,5,11,13-tetraazahexadecane-10,14,16-tricarboxylic acid | 85 | 76 |  |  | 
14 | (3S,10S,14S)-1-[(1r,4S)-4-(aminomethyl)cyclohexyl]-3-[([1,1′-biphenyl]-4-yl)methyl]-1,4,12-trioxo-2,5,11,13-tetraazahexadecane-10,14,16-tricarboxylic acid | 98 | 58 |  |  | 
15 | tri-tert-butyl (3S,10S,14S)-3-[(4-tert-butylphenyl)methyl]-1-{(1r,4S)-4-[({[(9H-fluoren-9-yl)methoxy]carbonyl}amino)methyl]cyclohexyl}-1,4,12-trioxo-2,5,11,13-tetraazahexadecane-10,14,16-tricarboxylate |  |  |  | 57 | 
16 | (3S,10S,14S)-1-[(1r,4S)-4-(43-amino-3,7-dioxo-5,11,14,17,20,23,26,29,32,35,38,41-dodecaoxa-2,8-diazatritetracontan-1-yl)cyclohexyl]-3-[(naphthalen-2-yl)methyl]-1,4,12-trioxo-2,5,11,13-tetraazahexadecane-10,14,16-tricarboxylic acid |  | 100 |  |  | 
17 | tri-tert-butyl (3S,10S,14S)-1-{4-[({[(9H-fluoren-9-yl)methoxy]carbonyl}amino)methyl]phenyl}-3-[(naphthalen-2-yl)methyl]-1,4,12-trioxo-2,5,11,13-tetraazahexadecane-10,14,16-tricarboxylate |  |  | 95 | 25 | 
18 | N^6—{N^2-[(1r,4S)-4-(aminomethyl)cyclohexane-1-carbonyl]-N^6-(pyridine-3-carbonyl)-L-lysyl}-N^2-{[(1S)-1,3-dicarboxypropyl]carbamoyl}-L-lysine | 95 | 76 |  |  | 
19 | tri-tert-butyl (8S,15S,19S)-8-{[(1r,4S)-4-(aminomethyl)cyclohexane-1-carbonyl]amino}-2,9,17-trioxo-3,10,16,18-tetraazahenicosane-15,19,21-tricarboxylate | 73 |  |  |  | 
20 | (3R,10S,14S,3′R,10'S,14'S)-1,1′-(propane-1,3-diylbis{[(2-{[1-(carboxymethyl)-3-hydroxy-6-methyl-2-oxo-1,2-dihydropyridine-4-carbonyl]amino}ethyl)azanediyl]ethane-2,1-diylcarbamoyl(3-hydroxy-6-methyl-2-oxopyridine-4,1(2H)-diyl)(1-oxoethane-2,1-diyl)azanediylmethylene(1r,4S)cyclohexane-4,1-diyl})bis(3-{[4-(methylamino)naphthalen-2-yl]methyl}-1,4,12-trioxo-2,5,11,13-tetraazahexadecane-10,14,16-tricarboxylic acid) |  |  |  |  | 95
21 | (3S,10S,14S)-1-[4-(aminomethyl)phenyl]-3-[(naphthalen-2-yl)methyl]-1,4,12-trioxo-2,5,11,13-tetraazahexadecane-10,14,16-tricarboxylic acid | 90 | 11 |  |  | 

Source: patent publication US20230072421A1 (Bayer AS, priority 2019, published 2023)
